Test [1] deals with GFP-tagged Heat shock protein 90 (Hsp90) (C. albicans) (UniProt P46598). Nature of the test: condition: only cells grown on YPD-K medium (with glucose); co-IP; cells grown on YPD-K medium (2% glucose); lysate in 50 mM Na-HEPES pH 7.5, 450 mM NaOAc, 0.25% NP-40; anti-GFP antibody Sepharose, 4°C, 3 h; immunoblot with anti-Myc. A general note: Immunoblotting shows a protein as a band on a membrane.

By UniProt entry, the sequences of proteins in these tests, tags left out.
UniProt P46598: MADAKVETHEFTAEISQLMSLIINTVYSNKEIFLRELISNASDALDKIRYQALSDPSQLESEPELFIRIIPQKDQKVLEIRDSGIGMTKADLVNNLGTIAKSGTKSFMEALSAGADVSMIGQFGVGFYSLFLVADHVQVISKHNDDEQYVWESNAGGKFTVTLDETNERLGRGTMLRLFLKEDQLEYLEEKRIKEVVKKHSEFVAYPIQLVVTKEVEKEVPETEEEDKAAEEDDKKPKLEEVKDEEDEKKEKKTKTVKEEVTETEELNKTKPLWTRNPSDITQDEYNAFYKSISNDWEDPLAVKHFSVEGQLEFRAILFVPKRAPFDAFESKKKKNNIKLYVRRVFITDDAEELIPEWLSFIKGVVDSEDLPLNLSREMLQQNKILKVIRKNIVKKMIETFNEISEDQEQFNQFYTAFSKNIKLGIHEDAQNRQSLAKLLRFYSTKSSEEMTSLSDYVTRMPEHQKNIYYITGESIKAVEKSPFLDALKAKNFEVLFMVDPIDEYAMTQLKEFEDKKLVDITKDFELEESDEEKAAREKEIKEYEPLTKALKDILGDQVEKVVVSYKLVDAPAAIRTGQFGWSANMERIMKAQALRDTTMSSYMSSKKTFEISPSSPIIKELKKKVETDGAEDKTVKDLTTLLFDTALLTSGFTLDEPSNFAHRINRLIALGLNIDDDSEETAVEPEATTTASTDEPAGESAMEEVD

For test [2] the target is unchanged. Nature of the test: co-IP; cells grown on YP-K medium (no glucose); lysate in 50 mM Na-HEPES pH 7.5, 450 mM NaOAc, 0.25% NP-40; anti-GFP antibody Sepharose, 4°C, 3 h; immunoblot with anti-Myc.

These are yes or no findings as the source states them, for the method shown. In cells and extracts the contact can be indirect. Some binding calls cover weakened binding; strength is not graded here. Tags and fused reporters may be left off the sequences shown.

B1: 13x Myc-tagged Cell Wall Transcription factor 1 (Cwt1) (protein, UniProt Q59M50 1-578)
chain: MSTMSTQKANSSTPGETDSSSSLPPPEITEPTYKKPEKSTKRRKKKLEIACVYCRRSHMICDESRPCQRCIKRGIAHLCYDEPSNSRQRKKAAALRKTQSEGAPMVTSPITLPLTGSTGNQSPLPLPPLQASQSDIRSAPKTENSLQFSQPALHQQQMQENPQGASQSVHTNNTHIYSSQNQQQQPQHQQQLQQQQPQPQPQSRLIKNSVLSQTLPYNQQPFFYSEHANSEFSSLNDFLSMIDDPELVNGALNDDTDGLLNFGVGNNNNSGGSNSNINNTHNNNNNGFSISGGNSTTNLNAVLAYSPNSNLFPPTFGNEADSTQIQSQQQQPELTQQPPALNPVKVEPQAEKTEQQPVISDSARDKFFLTAADPTTEISPEERLKQVIKAKLEAGLLQPYNYAKGYARLQRYMDNYMNISSRQRILKPLSIFRPAFRAIARTLKDVDLVLVEESFERMLLDYDRVFTAMAIPACLWRRTGEIYRGNKEFASLVGVTTDDLKDGKLAIYELMSEESAVNFWEKYGAIAFDKGQKAVLTSCNLRTRDGIKRKSCCFSFTIRRDRYNIPSCIVGNFIPIDP
Turning to B1, the binding result is recorded as “no binding” in test [1] and “binds” in test [2].

(Values after publication PMC6415874.)
